{"sequences": {"note": "By UniProt entry, the sequences of proteins in these tests, tags left out.", "UniProt C0SPA7, whole entry": "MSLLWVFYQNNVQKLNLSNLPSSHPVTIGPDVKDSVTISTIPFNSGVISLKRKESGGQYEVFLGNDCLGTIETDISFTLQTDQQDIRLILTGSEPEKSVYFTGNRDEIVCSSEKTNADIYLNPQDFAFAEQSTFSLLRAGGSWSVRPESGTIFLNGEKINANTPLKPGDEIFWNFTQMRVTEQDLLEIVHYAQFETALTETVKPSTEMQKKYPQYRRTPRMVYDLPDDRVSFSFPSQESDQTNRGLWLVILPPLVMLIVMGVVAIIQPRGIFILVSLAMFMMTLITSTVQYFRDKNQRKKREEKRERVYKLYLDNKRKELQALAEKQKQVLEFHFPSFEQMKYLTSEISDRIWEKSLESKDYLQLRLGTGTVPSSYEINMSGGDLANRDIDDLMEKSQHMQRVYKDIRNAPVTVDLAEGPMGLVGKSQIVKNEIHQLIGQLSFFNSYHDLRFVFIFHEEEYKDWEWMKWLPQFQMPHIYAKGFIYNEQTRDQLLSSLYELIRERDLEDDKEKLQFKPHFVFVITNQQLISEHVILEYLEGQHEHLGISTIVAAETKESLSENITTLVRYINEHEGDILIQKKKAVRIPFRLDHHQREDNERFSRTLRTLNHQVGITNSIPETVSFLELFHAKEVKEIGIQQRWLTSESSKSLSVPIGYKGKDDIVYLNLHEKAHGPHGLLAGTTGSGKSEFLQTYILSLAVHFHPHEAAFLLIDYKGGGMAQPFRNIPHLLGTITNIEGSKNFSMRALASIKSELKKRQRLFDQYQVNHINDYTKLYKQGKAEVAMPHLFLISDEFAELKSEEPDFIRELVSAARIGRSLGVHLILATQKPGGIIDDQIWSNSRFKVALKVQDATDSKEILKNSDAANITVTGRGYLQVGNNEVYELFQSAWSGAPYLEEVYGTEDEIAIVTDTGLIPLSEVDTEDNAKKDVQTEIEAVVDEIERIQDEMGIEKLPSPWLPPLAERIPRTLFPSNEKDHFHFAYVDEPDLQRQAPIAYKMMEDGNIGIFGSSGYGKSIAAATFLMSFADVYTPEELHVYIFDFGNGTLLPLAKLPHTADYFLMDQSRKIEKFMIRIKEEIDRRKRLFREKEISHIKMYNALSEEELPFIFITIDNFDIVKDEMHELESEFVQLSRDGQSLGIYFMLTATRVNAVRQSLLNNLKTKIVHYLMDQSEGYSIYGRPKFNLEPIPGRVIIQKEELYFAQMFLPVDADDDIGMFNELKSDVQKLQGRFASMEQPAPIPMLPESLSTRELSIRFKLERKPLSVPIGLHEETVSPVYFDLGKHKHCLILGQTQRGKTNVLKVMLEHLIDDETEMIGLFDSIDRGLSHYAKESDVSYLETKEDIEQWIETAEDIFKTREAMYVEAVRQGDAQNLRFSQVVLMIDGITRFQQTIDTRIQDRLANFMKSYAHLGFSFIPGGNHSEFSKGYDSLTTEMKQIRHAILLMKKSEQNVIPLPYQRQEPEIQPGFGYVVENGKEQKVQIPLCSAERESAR", "UniProt O32100, whole entry": "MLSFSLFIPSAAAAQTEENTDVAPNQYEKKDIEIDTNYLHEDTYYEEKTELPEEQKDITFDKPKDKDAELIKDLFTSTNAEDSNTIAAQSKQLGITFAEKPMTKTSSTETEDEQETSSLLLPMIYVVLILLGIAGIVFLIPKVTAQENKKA"}, "source": "paper doi:10.1101/2020.05.09.085852", "about": "(bioRxiv, 2020)", "binders": {"B1": {"name": "YukD (BACTH fusion) (protein, UniProt P71071 1-79)", "chain": "MYIDITIDLKHYNGSVFDLRLSDYHPVKKVIDIAWQAQSVSMPPREGHWIRVVNKDKVFSGECKLSDCGITNGDRLEIL"}}, "assay_in_all_cases": "two-hybrid", "key": {"[1]": {"molecular_target": "T1, YueB (BACTH fusion) (B. subtilis 168) (UniProt O32101)", "T1 sequence": "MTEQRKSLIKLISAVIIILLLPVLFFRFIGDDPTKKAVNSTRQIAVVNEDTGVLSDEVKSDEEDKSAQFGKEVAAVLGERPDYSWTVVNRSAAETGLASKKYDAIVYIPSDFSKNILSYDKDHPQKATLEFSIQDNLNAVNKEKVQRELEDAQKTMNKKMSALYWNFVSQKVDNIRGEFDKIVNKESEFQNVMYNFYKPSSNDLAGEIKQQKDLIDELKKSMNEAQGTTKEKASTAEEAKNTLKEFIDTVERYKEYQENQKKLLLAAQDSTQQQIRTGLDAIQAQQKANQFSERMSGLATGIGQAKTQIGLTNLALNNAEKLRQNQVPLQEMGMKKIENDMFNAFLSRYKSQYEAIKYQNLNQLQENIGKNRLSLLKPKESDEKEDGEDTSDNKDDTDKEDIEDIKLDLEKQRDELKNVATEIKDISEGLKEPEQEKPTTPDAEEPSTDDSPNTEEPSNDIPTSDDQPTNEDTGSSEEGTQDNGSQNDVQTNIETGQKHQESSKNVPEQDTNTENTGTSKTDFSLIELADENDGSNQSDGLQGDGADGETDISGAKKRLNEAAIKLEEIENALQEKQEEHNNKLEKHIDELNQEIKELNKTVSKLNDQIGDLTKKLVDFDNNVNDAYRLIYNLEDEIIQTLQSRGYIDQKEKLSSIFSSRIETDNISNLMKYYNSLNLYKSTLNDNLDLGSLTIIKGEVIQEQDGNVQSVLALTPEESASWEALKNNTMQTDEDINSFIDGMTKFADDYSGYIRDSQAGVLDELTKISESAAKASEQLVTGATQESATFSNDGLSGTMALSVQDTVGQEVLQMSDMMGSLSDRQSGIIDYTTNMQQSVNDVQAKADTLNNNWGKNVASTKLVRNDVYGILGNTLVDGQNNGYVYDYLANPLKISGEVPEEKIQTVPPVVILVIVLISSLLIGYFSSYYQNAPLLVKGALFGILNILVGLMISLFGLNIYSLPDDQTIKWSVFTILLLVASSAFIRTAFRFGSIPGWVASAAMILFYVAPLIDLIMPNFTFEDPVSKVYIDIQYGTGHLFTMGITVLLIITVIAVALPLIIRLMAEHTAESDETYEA"}, "[2]": {"molecular_target": "YukB (BACTH fusion) (B. subtilis 168) (UniProt C0SPA7)"}, "[3]": {"molecular_target": "YueC (BACTH fusion) (B. subtilis 168) (UniProt O32100)"}, "[4]": {"molecular_target": "YukD (BACTH fusion) (B. subtilis 168) (UniProt P71071)"}, "[5]": {"molecular_target": "T2, YukC (BACTH fusion) (B. subtilis 168) (UniProt P71070)", "T2 sequence": "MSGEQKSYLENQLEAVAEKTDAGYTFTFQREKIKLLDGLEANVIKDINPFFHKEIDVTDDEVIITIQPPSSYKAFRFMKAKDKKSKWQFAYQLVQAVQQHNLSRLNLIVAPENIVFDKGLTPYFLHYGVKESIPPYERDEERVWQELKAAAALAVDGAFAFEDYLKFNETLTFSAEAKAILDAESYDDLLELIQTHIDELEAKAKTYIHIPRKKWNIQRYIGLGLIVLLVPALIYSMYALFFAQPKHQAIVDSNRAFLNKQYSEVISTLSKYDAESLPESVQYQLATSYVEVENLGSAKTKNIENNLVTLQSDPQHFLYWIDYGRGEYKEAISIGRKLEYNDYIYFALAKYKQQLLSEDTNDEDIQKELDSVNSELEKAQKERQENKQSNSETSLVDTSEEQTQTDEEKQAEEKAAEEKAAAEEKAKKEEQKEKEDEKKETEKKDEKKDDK"}}, "note": "These are yes or no findings as the source states them, for the method shown. Some results given as binding are weak or reduced against the parent protein; the word gives no strength. Tags and fused reporters may be left off the sequences shown."}
{"binder": "B1", "values": [{"measurement": "binding", "setting": "[1]", "result": "binds"}, {"measurement": "binding", "setting": "[2]", "result": "no binding"}, {"measurement": "binding", "setting": "[3]", "result": "binds"}, {"measurement": "binding", "setting": "[4]", "result": "no binding"}, {"measurement": "binding", "setting": "[5]", "result": "binds weakly"}]}
